The list shows a part of the results. Further columns of the screen follow, without active or inactive calls. Most of these compounds were active or inconclusive in the main read-out, so they are no random draw. Words in brackets tell the shape of the fitted curve; partial curves, single points and poor fits give uncertain potencies.
Experiment: qHTS Assay for Lipid Storage Modulators in Drosophila S3 Cells;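 as to cell number change: cells counted by Cell Tracker Red CMTPX staining in the red channel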
Details: BODIPY lipid droplet fluorescence, 18-24 h; for cell number change: measured here: cell count max response, cells fed with added oleic acid
How it was run: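 Drosophila S3 cells loaded with oleic acid (400 uM, as added) and compounds at several concentrations; lipid droplets imaged by 488-nm laser-scanning cytometry, 500–530 nm intensity and object ratio to cell channel. Percent activity normalized to 20 uM Triacsin C.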

[1] = measured here: lipid fluorescence (Fed channel) AC50, cells fed with added oleic acid
[2] = measured here: cell number channel AC50, cells fed with added oleic acid

Compound	cell number change	AC50 [1]	AC50 [2]
COc1cc(/C=C2\C(=N)N3N=C(C)SC3=NC2=O)cc(OC)c1OCCOc1ccccc1C	-16.4%	23.1 µM [falling, single point]	
CCOC(=O)c1c(C)n(C)c2ccc(OC)c(NC(=O)CCN3CCSCC3)c12	46.8%	4.61 µM [rising, single point]	5.17 µM [rising, full curve]
COc1cc(NC(=S)NN2CCN(C)CC2)cc(OC)c1OC	-7.9%	16.4 µM [rising, partial curve]	0.731 µM [falling, single point]
C#CCn1c(C)cc(C)c(S(=O)(=O)c2ccccc2)c1=O	-32%		3.26 µM [falling, full curve, poor fit]
Cc1ccc(C(=O)OCC(=O)NCCNC(=O)COC(=O)c2ccc(C)s2)s1	0.5%		
C/C(=N\NC(=O)c1ccncc1)c1cccc(NC(=O)c2ccc(C(C)(C)C)cc2)c1	-51.6%	20.6 µM [falling, partial curve]	36.6 µM [falling, partial curve, poor fit]
COc1cccc(NC(=S)NCc2ccco2)c1	5.87%	4.11 µM [rising, partial curve]	
N#Cc1cccc(C(c2nnnn2C2CCCC2)N2CCCCCC2)c1 (configuration not stated)	-2.07%	29.1 µM [falling, single point]	
CCOC(=O)N(Cc1ccccc1)C(C(=O)O)C(C(=O)O)N(Cc1ccccc1)C(=O)OCC (configuration not stated)	-30.8%		0.184 µM [falling, full curve, poor fit]
Cc1ccc(NC(=O)c2cc(-c3ccc(C)o3)nc3ccccc23)nc1	-56.2%	29.1 µM [falling, single point]	29.1 µM [falling, single point]
Cc1cc(C(=O)Nc2cccc([N+](=O)[O-])c2C)cs1	35.3%	7.08 µM [rising, full curve, poor fit]	
N#Cc1cc2c(=O)n3ccccc3nc2n(CCCn2ccnc2)c1=N	1.21%	0.0058 µM [rising, full curve, poor fit]	
Cc1c(C(=O)C(=O)N2CCN(C)CC2)c2ccccc2n1C	-8.77%	20.6 µM [falling, single point]	0.731 µM [falling, single point]
O=C(O)c1ccc(S(=O)(=O)Nc2ccc(O)c(Sc3nc4ccccc4s3)c2)cc1	11.8%	2.31 µM [falling, single point]	
O=C(CSC1=NCCN1)Nc1cccc(C(F)(F)F)c1	110%	6.51 µM [falling, single point]	5.8 µM [falling, single point]
CCCn1c(SCC(=O)Nc2nc(C)cs2)nnc1-c1cccnc1	21.3%	0.411 µM [rising, full curve]	0.461 µM [rising, full curve, poor fit]
O=C(c1ccncc1)c1nccn1-c1ccccn1	1.82%	13 µM [rising, partial curve]	
CCOC(=O)N1CCN(C(=O)c2ccc(CN(c3ccccc3)S(C)(=O)=O)cc2)CC1	13.7%	29.1 µM [rising, single point]	
COc1cccc(-n2c(C)nnc2SCC#N)c1	-32.4%	29.1 µM [falling, single point]	16.4 µM [falling, single point]

Compound	cell number change	AC50 [1]	AC50 [2]
O=C(COC(=O)CNS(=O)(=O)c1ccccc1)Nc1ccc(Cl)cn1	-16.4%		3.26 µM [falling, single point]
Cc1c(C)c2ccc(OCC(=O)N3CC[C@@]4(O)CCCC[C@H]4C3)c(C)c2oc1=O	-8.74%	1.3 µM [falling, partial curve]	
CCOC(=O)c1c(NC(=O)CSc2nnc3ccccn23)sc2c1CCC2	29.2%	29.1 µM [rising, single point]	
COC(CCN(C)C)(c1ccccc1)c1ccccc1		0.164 µM [falling, full curve]	
COc1cc(S(=O)(=O)Nc2c(C)cc(C)cc2C)ccc1Cl	-11.8%	0.058 µM [rising, full curve, poor fit]	
COc1cc(S(=O)(=O)NC2CCCCC2)ccc1F	35.5%	0.58 µM [rising, single point]	0.411 µM [rising, full curve, poor fit]
OC(CN1c2ccccc2Sc2ccccc21)Cn1nnc2ccccc21 (configuration not stated)	-61.9%		13 µM [falling, partial curve]
CCc1nnc(NC(=O)CN2C(=O)c3ccccc3S2(=O)=O)s1	-43.3%	29.1 µM [falling, single point]	13 µM [falling, partial curve]
COc1ccc(NC(=O)NNC(=O)c2ccc3ccccc3c2O)c(OC)c1	31.4%	12.6 µM [rising, partial curve]	7.08 µM [rising, full curve, poor fit]
CC(=O)OCC1=C(C(=O)O)N2C(=O)C(NC(=O)c3ccc(F)cc3)C2SC1 (configuration not stated)	-47.6%	25.9 µM [falling, single point]	29.1 µM [falling, single point]
CCN1CCCC1CNC(=O)c1cc2c(OC)cccc2[nH]1 (configuration not stated)	13.2%	10.3 µM [rising, single point]	
COc1cccc(OC)c1NC(=O)Cn1nc(-c2ccc3c(c2)OCCO3)ccc1=O	3.48%	29.1 µM [falling, partial curve]	
Cc1cccc([C@@H]2[C@@H]3C(=O)N(Cc4ccccc4)C(=O)[C@@H]3[C@]3(Cc4ccccc4)C(=O)N(c4ccccc4)C(=O)N23)c1	-3.5%	8.2 µM [rising, partial curve]	
Cc1ccc(N2CC(C(=O)NCCS(=O)(=O)N3CCN(c4ccccc4)CC3)CC2=O)cc1 (configuration not stated)	9.25%		
COc1cc(OC)c(OC)cc1CNC(=O)c1ccc(S(=O)(=O)N2CCCCC2)cc1	1.65%		
COc1cccc(OCC(=O)NC2CCCCC2)c1	6.98%	29.1 µM [rising, single point]	
Cc1cc(C(=O)OCC(=O)NNC(=O)c2cccs2)ccc1[N+](=O)[O-]	-3%		
O=C(CN1C(=O)S/C(=C\c2ccc(Cl)cc2)C1=O)NC1C=CS(=O)(=O)C1 (configuration not stated)	-5.81%	29.1 µM [falling, partial curve, poor fit]	
CCC1Oc2ccccc2N(CC(=O)NCCN2CCc3ccccc3C2)C1=O (configuration not stated)	19.5%	3.66 µM [rising, partial curve]	

3 structures already listed, ordered by molecular weight, high to low.
Compound	cell number change	AC50 [1]	AC50 [2]
COc1cc(OC)c(OC)cc1CNC(=O)c1ccc(S(=O)(=O)N2CCCCC2)cc1	1.65%		
COc1cccc(OC)c1NC(=O)Cn1nc(-c2ccc3c(c2)OCCO3)ccc1=O	3.48%	29.1 µM [falling, partial curve]	
CCc1nnc(NC(=O)CN2C(=O)c3ccccc3S2(=O)=O)s1	-43.3%	29.1 µM [falling, single point]	13 µM [falling, partial curve]

More results.

Compound	cell number change	AC50 [1]	AC50 [2]
Cc1ccc(-n2nc3c(N4CCC(C(=O)N5CCN(C)CC5)CC4)nnc(C)c3c2C)cc1	-1.49%	0.116 µM [falling, full curve, poor fit]	
COc1ccc(CNC(=S)NCc2ccc(Cl)cc2)cc1OC	16.4%	18.4 µM [rising, partial curve, poor fit]	
O=C(O)c1ccc(-n2c(-c3cc(C4CC4)[nH]n3)n[nH]c2=S)cc1	-2%	0.259 µM [falling, full curve, poor fit]	
COc1ccc(CCNC(=O)c2cc(S(=O)(=O)N3CCCC3)cn2C)cc1OC	-29.7%	6.51 µM [falling, single point]	
COC(=O)c1ccc(NC(=O)C2CCCN2C(=O)Nc2cccc(C(C)=O)c2)cc1 (configuration not stated)	23%	23.1 µM [rising, partial curve]	
COc1ccc(S(=O)(=O)N2CCCC(C(=O)N3CCOCC3)C2)cc1OC (configuration not stated)	-5.13%		
CCC1(c2ccccc2)NC(=O)N(CC(=O)Nc2ccc(S(=O)(=O)NC3=NCCCCC3)cc2)C1=O (configuration not stated)	-75%	0.651 µM [rising, single point]	32.6 µM [falling, partial curve, poor fit]
COc1ccc(/C=N/NC(=O)c2ccccc2OC)cc1COc1ccc(C)cc1		3.66 µM [rising, full curve]	
COCCCNc1nc2ccccc2nc1NS(=O)(=O)c1ccc(F)cc1	26%	0.366 µM [rising, full curve]	
COc1ccc(-c2noc(Cn3cc(S(=O)(=O)N4CCCC4)ccc3=O)n2)cc1	-7.9%	14.6 µM [rising, partial curve]	0.116 µM [falling, full curve, poor fit]
O=S(=O)(c1ccc(Br)s1)N1CCN(c2ccnc3cc(Cl)ccc23)CC1	-17.6%	29.1 µM [falling, single point]	
O=C(Nc1nc2nc(-c3ccccc3)cc(-c3ccccc3)n2n1)c1ccco1			0.0206 µM [rising, full curve, poor fit]
Nn1cnnc1SC1CCCCC1NS(=O)(=O)c1ccccc1 (configuration not stated)		0.291 µM [rising, partial curve, poor fit]	
Cc1ccc(CCNC(=O)c2coc3nc4ccccc4nc23)cc1	9.96%		0.092 µM [rising, full curve, poor fit]
CCOC(=O)C(=O)Nc1ccc(S(=O)(=O)Nc2ncccn2)cc1	-38.1%	2.59 µM [falling, full curve]	3.66 µM [falling, full curve]
O=C(O)CCC(=O)N1N=C(c2ccc(Br)cc2)CC1c1cccs1 (configuration not stated)	-49.4%		16.4 µM [falling, single point]
COC(=O)c1c(NC(=O)C2Cc3ccccc3C(=O)O2)sc2c1CCCC2 (configuration not stated)	4.71%		
CCCNC(=O)NNC(=O)c1ccc(F)cc1	-13.8%	2.06 µM [falling, single point]	
